The list does not hold the whole screen: it gathers tests that were run many times, whatever their T/C, doses with no T/C, and many T/C values between a quarter and a half above the control. Further doses and runs are listed elsewhere. T/C: endpoint of the treated group in % of that of the vehicle group. Schedules are NCI's codes, taken here to give the interval after Q, in days (D) or hours (H), and the number of doses after X. Some T/C values carry the count of animals alive at the toxicity check (mostly the fifth day); where none is given, no animal had died by that day. Some entries were tested several times; the results are listed from low to high. Some entries give survivors of the animals treated and no T/C: the source holds a T/C of zero for them, seemingly a mark for toxic or unscored doses. Survivors were counted at the toxicity check, usually on the fifth day, unless a day is given; later deaths do not show.
System: nude mice, LX-1 lung xenograft intrarenal, tumor weight T/C
Experiment: NCI In Vivo Anticancer Drug Screen. Data for tumor model Human Lung LX-1 Xenograft (intrarenal inoculation) in NU/NU Swiss (nude) mice
Details: T/C endpoint: mean tumor weight change, higher T/C = larger tumour; for T/C: evaluated on day 11
In short: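 Readout: T/C, i.e. treated-group tumor measurement over vehicle-control measurement. Mice bearing transplantable tumors were dosed with compound or vehicle.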

[1] = dose: 75.0 mg/kg/injection, schedule: Q04DX003 (sc), vehicle: saline
[2] = dose: 200.0 mg/kg/injection, schedule: Q01DX010 (sc), vehicle: distilled water + Tween-80
[3] = dose: 600.0 mg/kg/injection, schedule: Q04DX003 (sc), vehicle: saline with Tween-80
[4] = dose: 200.0 mg/kg/injection, schedule: Q01DX010 (sc), vehicle: saline with Tween-80
[5] = dose: 2400.0 mg/kg/injection, schedule: Q04DX003 (sc), vehicle: saline with Tween-80
[6] = dose: 200.0 mg/kg/injection, schedule: Q01DX010 (sc), vehicle: saline
[7] = dose: 400.0 mg/kg/injection, schedule: Q01DX010 (sc), vehicle: saline

## CCn1cnc2c(=S)nc[nH]c21
[1]
  T/C: 145 % of control
dose: 300.0 mg/kg/injection, schedule: Q04DX003 (sc), vehicle: saline
  T/C: 131 % of control

## C(=N/NC1=NCCN1)/c1c2ccccc2c(/C=N\NC2=NCCN2)c2ccccc12
dose: 37.5 mg/kg/injection, schedule: Q04DX003 (sc), vehicle: suspension in saline
  T/C: 145 % of control

## CC(C)NC(=O)OCc1c(COC(=O)NC(C)C)c(-c2ccc(Cl)c(Cl)c2)n2c1CCC2
dose: 25.0 mg/kg/injection, schedule: Q01DX010 (sc), vehicle: distilled water + Tween-80
  T/C: 126 % of control
dose: 100.0 mg/kg/injection, schedule: Q01DX010 (sc), vehicle: distilled water + Tween-80
  T/C: 29, 40, 68 [2 of 3 alive on day 11], 82, 94 % of control
[2]
  T/C: 15 [2 of 3 alive on day 11], 16, 44 [5 of 6 alive on day 11], 61 % of control
  survivor count: 1 of 3 on day 11
dose: 400.0 mg/kg/injection, schedule: Q01DX010 (sc), vehicle: distilled water + Tween-80
  T/C: 18 [2 of 3 alive on day 11], 21, 21 [2 of 3 alive on day 11], 51 % of control [5 of 6 alive on day 11]

## COC1=C(N)C(=O)c2nc(-c3nc(C(=O)O)c(C)c(-c4ccc(OC)c(OC)c4O)c3N)ccc2C1=O
dose: 1.0 mg/kg/injection, schedule: Q01DX010 (sc), vehicle: saline
  survivor count: 0 of 3 on day 11
dose: 2.0 mg/kg/injection, schedule: Q01DX010 (sc), vehicle: saline
  survivor count: 0 of 6 on day 11

## C[Si](C)(C)n1nnn(-c2ccccc2)c1=O
[3]
  survivor count: 3 of 6 on day 11

## O=C1C=CC(=O)N1c1ccc(Cl)cc1
dose: 300.0 mg/kg/injection, schedule: Q04DX003 (sc), vehicle: Klucel (hydroxypropylcellulose) (HPC)
  survivor count: 3 of 6 on day 11

## O=Cc1ccc(C(Cl)(Cl)Cl)cc1
[4]
  T/C: 128 % of control

## C[C@H](CCC[C@H](C)OS(=O)(=O)c1ccccc1)OS(=O)(=O)c1ccccc1
[3]
  survivor count: 1 of 6 on day 11
dose: 1200.0 mg/kg/injection, schedule: Q04DX003 (sc), vehicle: saline with Tween-80
  survivor count: 3 of 6 on day 11

## CC1=C(/C=C/C(C)=C/C=C/C(C)=C/C=O)C(C)(C)CCC1
[5]
  survivor count: 3 of 6 on day 11

## CCN(CC)CCOC(=O)Cc1cccc2c(=O)cc(-c3ccccc3)oc12
dose: 50.0 mg/kg/injection, schedule: Q04DX003 (sc), vehicle: saline with Tween-80
  T/C: 137 % of control
dose: 400.0 mg/kg/injection, schedule: Q04DX003 (sc), vehicle: saline with Tween-80
  survivor count: 2 of 6 on day 11

## O=C1C=CN(C2OC(CO)C(O)C2O)C(=O)C1 (centres undefined)
[6]
  survivor count: 1 of 3 on day 11
[7]
  survivor count: 0 of 3 on day 11

## COc1cccc2c1C(=O)c1c(O)c3c(c(O)c1C2=O)CC(O)(/C(C)=N/NC(=O)CCC(=O)N/N=C(\C)C1(O)Cc2c(O)c4c(c(O)c2C(OC2CC(N)C(O)C(C)O2)C1)C(=O)c1c(OC)cccc1C4=O)CC3OC1CC(N)C(O)C(C)O1 (centres undefined)
dose: 25.0 mg/kg/injection, schedule: Q01DX010 (sc), vehicle: water
  survivor count: 0 of 3 on day 11
dose: 50.0 mg/kg/injection, schedule: Q01DX010 (sc), vehicle: water
  survivor count: 0 of 3 on day 11

## COC12C(COC(N)=O)C3=C(C(=O)C(C)=C(N)C3=O)N1CC1C2N1C (centres undefined)
dose: 16.0 mg/kg/injection, schedule: Q01DX010 (sc), vehicle: saline
  survivor count: 0 of 3 on day 11 and 1 of 3 on day 11
dose: 32.0 mg/kg/injection, schedule: Q01DX010 (sc), vehicle: saline
  survivor count: 0 of 3 on day 11

## C1CN2CCC1CC2
dose: 37.5 mg/kg/injection, schedule: Q04DX003 (sc), vehicle: saline with Tween-80
  survivor count: 0 of 6 on day 11
dose: 75.0 mg/kg/injection, schedule: Q04DX003 (sc), vehicle: saline with Tween-80
  survivor count: 0 of 6 on day 11
dose: 150.0 mg/kg/injection, schedule: Q04DX003 (sc), vehicle: saline with Tween-80
  survivor count: 0 of 6 on day 11
dose: 300.0 mg/kg/injection, schedule: Q04DX003 (sc), vehicle: saline with Tween-80
  survivor count: 0 of 6 on day 11
[3]
  survivor count: 0 of 6 on day 11

## Cc1c(N)nc(C(CC(N)=O)NCC(N)C(N)=O)nc1C(=O)NC(C(=O)NC(C)C(O)CC(=O)NC(C(=O)NC(OC1OC(C)C(N)C(O)C1O)C(O)c1nc(-c2nc(C(=O)NCCCC(N)CC(=O)NCCCNCCCCN)cs2)cs1)C(C)O)C(OC1OC(CO)C(O)C(O)C1OC1OC(CO)C(O)C(OC(N)=O)C1O)c1cnc[nH]1 (centres undefined)
dose: 32.0 mg/kg/injection, schedule: Q04DX003 (sc), vehicle: saline
  survivor count: 1 of 3 on day 11
dose: 64.0 mg/kg/injection, schedule: Q04DX003 (sc), vehicle: saline
  survivor count: 0 of 3 on day 11
dose: 128.0 mg/kg/injection, schedule: Q04DX003 (sc), vehicle: saline
  survivor count: 0 of 3 on day 11

## O=C1c2ccccc2C(=O)c2c(NCCNCCO)ccc(NCCNCCO)c21
dose: 8.0 mg/kg/injection, schedule: Q01DX010 (sc), vehicle: water
  T/C: 129 % of control
dose: 32.0 mg/kg/injection, schedule: Q01DX010 (sc), vehicle: water
  survivor count: 0 of 3 on day 11

## CC1=C(O)C(=O)[C@@H]2O[C@@H]2C1=O
dose: 9.38 mg/kg/injection, schedule: Q04DX003 (sc), vehicle: saline
  survivor count: 2 of 5 on day 11
dose: 18.75 mg/kg/injection, schedule: Q04DX003 (sc), vehicle: saline
  survivor count: 3 of 5 on day 11
dose: 37.5 mg/kg/injection, schedule: Q04DX003 (sc), vehicle: saline
  survivor count: 1 of 6 on day 11
[1]
  survivor count: 0 of 6 on day 11

## CC1=C(C)C(=O)O[C@@H]([C@](C)(O)[C@]2(O)CC[C@@]3(O)[C@@H]4C[C@H]5O[C@]56[C@@H](O)C=CC(=O)[C@]6(C)[C@H]4CC[C@]23C)C1
dose: 128.0 mg/kg/injection, schedule: Q01DX010 (sc), vehicle: saline
  survivor count: 0 of 3 on day 11

## CC(=O)Oc1ccc[nH]c1=O
dose: 200.0 mg/kg/injection, schedule: Q04DX003 (sc), vehicle: saline with Tween-80
  T/C: 125 % of control
dose: 1600.0 mg/kg/injection, schedule: Q04DX003 (sc), vehicle: saline with Tween-80
  survivor count: 3 of 6 on day 11

## O=C(O)/C=C/C(=O)Nc1ccc(Cl)c(Cl)c1
dose: 400.0 mg/kg/injection, schedule: Q04DX003 (sc), vehicle: Klucel (hydroxypropylcellulose) (HPC)
  survivor count: 3 of 6 on day 11
dose: 800.0 mg/kg/injection, schedule: Q04DX003 (sc), vehicle: Klucel (hydroxypropylcellulose) (HPC)
  survivor count: 2 of 6 on day 11

## COc1cc2cc3c4cc(OC)c(OC)cc4cc[n+]3c(C)c2cc1OC (tested in a mixture with another compound)
dose: 25.0 mg/kg/injection, schedule: Q01DX010 (sc), vehicle: saline
  T/C: 148 % of control
[6]
  survivor count: 0 of 3 on day 11

## N=C1CCCS1
dose: 150.0 mg/kg/injection, schedule: Q04DX003 (sc), vehicle: saline
  survivor count: 3 of 6 on day 11

## COC1CC(C)C(OC)c2cc(O)cc(c2O)NC(=O)/C(C)=C/C=C\C(C)C(OC(N)=O)/C(C)=C\C(C)C1OC (centres undefined)
dose: 200.0 mg/kg/injection, schedule: Q04DX003 (sc), vehicle: saline + alcohol
  survivor count: 3 of 6 on day 11

## S=C=NCCc1ccccc1
[4]
  survivor count: 0 of 3 on day 11 and 1 of 3 on day 11

## COc1ccc([I+]c2cccc(Cl)c2)cc1Cl
[5]
  survivor count: 2 of 6 on day 11

## NC(C/[N+]([O-])=N/O)C(=O)O (centres undefined)
dose: 100.0 mg/kg/injection, schedule: Q01DX010 (sc), vehicle: saline
  T/C: 138 % of control
[6]
  survivor count: 1 of 3 on day 11
[7]
  survivor count: 0 of 3 on day 11

## O=C1C=CC(n2cc(F)c(=O)[nH]c2=O)O1 (centres undefined)
dose: 200.0 mg/kg/injection, schedule: Q04DX003 (sc), vehicle: Klucel (hydroxypropylcellulose) (HPC)
  survivor count: 0 of 6 on day 11

## COc1cc(O)c2c(O)c3c(c4c2c1[C@]1(C4)C(C)=CCCC1(C)C)[C@H](O)[C@@]1(O)CC(=O)C(C(N)=O)=C(O)[C@@]1(O)C3=O
[5]
  survivor count: 3 of 6 on day 11

From PubChem BioAssay AID264 (DTP/NCI, 2004)
